# Reference: doi:10.1101/2021.11.02.466876
# These are yes or no findings as the source states them, for the method shown. Binding can be weak; no strength is given. Tags and fused reporters may be left off the sequences shown. For part of these data: Binding seen in cells or lysates may run through a third protein.
# T1: HopG1 fused to the GAL4 DNA-binding domain (pDEST32::HopG1) (Pseudomonas syringae pv. tomato DC3000) (UniProt Q87W42)
# T1 sequence: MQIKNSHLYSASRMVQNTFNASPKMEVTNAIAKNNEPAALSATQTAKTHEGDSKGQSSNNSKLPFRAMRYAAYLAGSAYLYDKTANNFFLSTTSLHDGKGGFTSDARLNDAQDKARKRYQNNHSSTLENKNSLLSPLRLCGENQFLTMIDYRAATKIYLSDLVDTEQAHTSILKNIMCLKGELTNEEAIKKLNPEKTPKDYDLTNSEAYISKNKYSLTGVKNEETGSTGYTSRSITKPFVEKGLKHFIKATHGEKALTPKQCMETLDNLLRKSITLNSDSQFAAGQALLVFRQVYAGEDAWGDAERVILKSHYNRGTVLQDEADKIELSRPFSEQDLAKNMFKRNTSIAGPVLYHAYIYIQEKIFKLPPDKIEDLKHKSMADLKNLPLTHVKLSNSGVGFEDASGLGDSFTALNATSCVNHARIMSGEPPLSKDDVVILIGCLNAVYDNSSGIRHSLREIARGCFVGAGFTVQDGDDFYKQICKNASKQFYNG
# What was measured:
# [1] = molecular target: T1, HopG1 fused to the GAL4 DNA-binding domain (pDEST32::HopG1) (Pseudomonas syringae pv. tomato DC3000); assay: two-hybrid
# [2] = molecular target: AtNHR2B tagged with the green fluorescent protein (AtNHR2B-GFP) (Arabidopsis thaliana); assay: co-IP
# [3] = molecular target: AtNHR2B fused to the N-terminal half of EYFP (nEYFP-AtNHR2B) (Arabidopsis thaliana); assay: split reporter
molecule,measurement,setting,value
AtNHR2B fused to the GAL4 activation domain (pDEST22::AtNHR2B) (from UniProt Q9SW23),binding,[1],binds
"HopG1 fused to the flag epitope (HopG1-FLAG) (protein, UniProt Q87W42 1-493) MQIKNSHLYSASRMVQNTFNASPKMEVTNAIAKNNEPAALSATQTAKTHEGDSKGQSSNNSKLPFRAMRYAAYLAGSAYLYDKTANNFFLSTTSLHDGKGGFTSDARLNDAQDKARKRYQNNHSSTLENKNSLLSPLRLCGENQFLTMIDYRAATKIYLSDLVDTEQAHTSILKNIMCLKGELTNEEAIKKLNPEKTPKDYDLTNSEAYISKNKYSLTGVKNEETGSTGYTSRSITKPFVEKGLKHFIKATHGEKALTPKQCMETLDNLLRKSITLNSDSQFAAGQALLVFRQVYAGEDAWGDAERVILKSHYNRGTVLQDEADKIELSRPFSEQDLAKNMFKRNTSIAGPVLYHAYIYIQEKIFKLPPDKIEDLKHKSMADLKNLPLTHVKLSNSGVGFEDASGLGDSFTALNATSCVNHARIMSGEPPLSKDDVVILIGCLNAVYDNSSGIRHSLREIARGCFVGAGFTVQDGDDFYKQICKNASKQFYNG",binding,[2],binds
"HopG1 fused to the C-terminal half of EYFP (HopG1-cEYFP) (protein, UniProt Q87W42 1-493) MQIKNSHLYSASRMVQNTFNASPKMEVTNAIAKNNEPAALSATQTAKTHEGDSKGQSSNNSKLPFRAMRYAAYLAGSAYLYDKTANNFFLSTTSLHDGKGGFTSDARLNDAQDKARKRYQNNHSSTLENKNSLLSPLRLCGENQFLTMIDYRAATKIYLSDLVDTEQAHTSILKNIMCLKGELTNEEAIKKLNPEKTPKDYDLTNSEAYISKNKYSLTGVKNEETGSTGYTSRSITKPFVEKGLKHFIKATHGEKALTPKQCMETLDNLLRKSITLNSDSQFAAGQALLVFRQVYAGEDAWGDAERVILKSHYNRGTVLQDEADKIELSRPFSEQDLAKNMFKRNTSIAGPVLYHAYIYIQEKIFKLPPDKIEDLKHKSMADLKNLPLTHVKLSNSGVGFEDASGLGDSFTALNATSCVNHARIMSGEPPLSKDDVVILIGCLNAVYDNSSGIRHSLREIARGCFVGAGFTVQDGDDFYKQICKNASKQFYNG",binding,[3],binds
